According to PMC8356473:
No constants are given. Whether binding was seen depends on the method and setting. For part of these data: Binding seen in cells or lysates may run through a third protein. Some binding calls cover weakened binding; strength is not graded here. Sequences can lack the tags named with a protein.

The chains behind the UniProt entries cited, without tags or fusion partners.
UniProt P17677: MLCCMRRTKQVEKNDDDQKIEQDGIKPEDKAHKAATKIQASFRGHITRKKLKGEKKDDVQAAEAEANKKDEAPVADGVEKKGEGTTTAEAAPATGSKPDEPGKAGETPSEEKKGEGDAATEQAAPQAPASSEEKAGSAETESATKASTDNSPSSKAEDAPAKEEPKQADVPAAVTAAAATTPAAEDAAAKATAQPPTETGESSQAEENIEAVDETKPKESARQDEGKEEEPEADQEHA

T1: FLAG-SH3BGRL3 (SH3 Domain Binding Glutamate Rich Protein Like 3), expressed in SKBR3 cells (human) (UniProt Q9H299)
T1 sequence: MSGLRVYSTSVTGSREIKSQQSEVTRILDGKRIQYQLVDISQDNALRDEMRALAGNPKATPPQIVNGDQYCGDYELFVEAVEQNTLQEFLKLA

B1: histidine-tagged SH3BGRL3 (protein, UniProt Q9H299 1-93)
chain: T1 sequence

Columns and labels:
[1] = molecular target: T1, FLAG-SH3BGRL3 (SH3 Domain Binding Glutamate Rich Protein Like 3), expressed in SKBR3 cells (human); experiment: co-IP; SKBR3 cells transfected or co-transfected; lysate in EB buffer on anti-FLAG M2 Affinity gel resin overnight at 4 °C, 5 washes with EB buffer, elution with 10% SDS, western blot (anti-Myo1c, anti-ErbB2 or anti-HA)
[2] = molecular target: GST-GAP43 fusion protein (UniProt P17677); experiment: pull-down; GST-GAP43 bound to Sepharose-Glutathione 4B, purified histidine-tagged SH3BGRL3, in presence of Ca2+ (EB buffer containing 1 mM CaCl2); western blot with anti-SH3BGRL3; both purified
[3] = molecular target: GST-GAP43 fusion protein (UniProt P17677); experiment: pull-down; GST-GAP43 bound to Sepharose-Glutathione 4B, purified histidine-tagged SH3BGRL3, in presence of EGTA (EB buffer containing 1 or 5 mM EGTA); western blot with anti-SH3BGRL3; both purified

Molecule	binding [1]	binding [2]	binding [3]
HA-tagged GAP43 (neuromodulin) (from UniProt P17677 1-238)	binds	–	–
B1	–	binds	no binding (condition: with 1 or 5 mM EGTA (no Ca2+))
